In the supplement of paper PMC7661543:
Differences between knockout arms are mostly noise.

Tests used:
Assay in all cases: relative cell number vs DMSO control (72 h) (% of DMSO); higher = less growth inhibition (more cells)
MDA-MB-231 = system: MDA-MB-231
Procedure: (§1)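 QMAP-Seq: a pool of 5 breast cancer cell lines (ZR-75-1, SKBR3, HCC-38, MDA-MB-231, BT-20), each carrying 12 doxycycline-inducible Cas9 sgRNA perturbations (11 knockouts plus non-targeting sgNT), was treated with compounds for 72 h at four 10-fold doses (10 nM-10 uM or 1 nM-1 uM range). Barcodes were amplified and sequenced, and cell number was interpolated from 293T spike-in standard curves. The result is expressed as % of the median of DMSO wells. Two biological replicates.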

SKBR3 = system: SKBR3
Procedure: as §1

ZR-75-1 = system: ZR-75-1
Procedure: as §1

CS(=O)(=O)c1cccc(CNc2nc(Nc3ccc4c(c3)CCC(=O)N4)ncc2C(F)(F)F)c1
relative cell number
Settings	MDA-MB-231	SKBR3	ZR-75-1
sgRNA knockout: sgATF3, 10 nM	128	97	94.4
sgRNA knockout: sgATF3, 100 nM	136	125	121.7
sgRNA knockout: sgATF3, 1000 nM	122	87.87	76.6
sgRNA knockout: sgATF3, 10000 nM	45	44.8	54.4
sgRNA knockout: sgATF4, 10 nM	143	77.4	129
sgRNA knockout: sgATF4, 100 nM	157.8	105	180
sgRNA knockout: sgATF4, 1000 nM	151	90.9	106
sgRNA knockout: sgATF4, 10000 nM	45.8	35.3	33.7
sgRNA knockout: sgATF6, 10 nM	102	81.7	105
sgRNA knockout: sgATF6, 100 nM	126	104	137.4
sgRNA knockout: sgATF6, 1000 nM	110	84.2	71.1
sgRNA knockout: sgATF6, 10000 nM	45.6	42.9	42.1
sgRNA knockout: sgATG7, 10 nM	115	93	87
sgRNA knockout: sgATG7, 100 nM	129	135	115
sgRNA knockout: sgATG7, 1000 nM	98.4	85.8	108
sgRNA knockout: sgATG7, 10000 nM	37.3	45.8	35.8
sgRNA knockout: sgERN1, 10 nM	97.8	111	85.9
sgRNA knockout: sgERN1, 100 nM	118.2	109	102
sgRNA knockout: sgERN1, 1000 nM	105	90.34	111
sgRNA knockout: sgERN1, 10000 nM	34.9	40.3	51.8
sgRNA knockout: sgHSF1, 10 nM	113	79	–
sgRNA knockout: sgHSF1, 100 nM	104	100	–
sgRNA knockout: sgHSF1, 1000 nM	117	80.2	–
sgRNA knockout: sgHSF1, 10000 nM	37.6	44.5	–
sgRNA knockout: sgHSF2, 10 nM	131	91.5	81
sgRNA knockout: sgHSF2, 100 nM	141	101	123.8
sgRNA knockout: sgHSF2, 1000 nM	128	82.1	80.6
sgRNA knockout: sgHSF2, 10000 nM	40.2	42.1	37.1
sgRNA knockout: sgKEAP1, 10 nM	104	99.8	–
sgRNA knockout: sgKEAP1, 100 nM	125	118	–
sgRNA knockout: sgKEAP1, 1000 nM	91	61.3	–
sgRNA knockout: sgKEAP1, 10000 nM	42.8	35.3	–
sgRNA knockout: sgNFE2L2, 10 nM	108	101	88.6
sgRNA knockout: sgNFE2L2, 100 nM	120	120	137
sgRNA knockout: sgNFE2L2, 1000 nM	129	91.3	89.7
sgRNA knockout: sgNFE2L2, 10000 nM	47.5	42.9	39.2
sgRNA knockout: sgSLC35F2, 10 nM	121	89.5	139
sgRNA knockout: sgSLC35F2, 100 nM	126	98.54	172
sgRNA knockout: sgSLC35F2, 1000 nM	106	87.2	136
sgRNA knockout: sgSLC35F2, 10000 nM	37.8	38.6	48.1
sgRNA knockout: sgXBP1, 10 nM	116	112	93.9
sgRNA knockout: sgXBP1, 100 nM	98.1	145	108.3
sgRNA knockout: sgXBP1, 1000 nM	106	92.9	105
sgRNA knockout: sgXBP1, 10000 nM	44.3	45.8	42.6

O=C1NC(=O)/C(=C/c2ccc3nccc(-c4ccncc4)c3c2)S1
relative cell number
Settings	MDA-MB-231	SKBR3	ZR-75-1
sgRNA knockout: sgATF3, 10 nM	84.5	63.3	61.2
sgRNA knockout: sgATF3, 100 nM	82.7	88.7	104
sgRNA knockout: sgATF3, 1000 nM	96.6	74.5	92.8
sgRNA knockout: sgATF3, 10000 nM	53	31.2	41.5
sgRNA knockout: sgATF4, 10 nM	93.3	88.8	123
sgRNA knockout: sgATF4, 100 nM	108	110	111
sgRNA knockout: sgATF4, 1000 nM	85.7	76.3	80.2
sgRNA knockout: sgATF4, 10000 nM	72.9	30.6	41.6
sgRNA knockout: sgATF6, 10 nM	92.5	74.57	128
sgRNA knockout: sgATF6, 100 nM	98	82.6	66.2
sgRNA knockout: sgATF6, 1000 nM	93.9	79.6	75.2
sgRNA knockout: sgATF6, 10000 nM	57.4	31.5	35.9
sgRNA knockout: sgATG7, 10 nM	87.4	89.7	108
sgRNA knockout: sgATG7, 100 nM	93	119	118
sgRNA knockout: sgATG7, 1000 nM	92.7	113	96.2
sgRNA knockout: sgATG7, 10000 nM	51.9	35.8	31.5
sgRNA knockout: sgERN1, 10 nM	118	114	92.4
sgRNA knockout: sgERN1, 100 nM	67.4	103	94
sgRNA knockout: sgERN1, 1000 nM	98.9	92	96.7
sgRNA knockout: sgERN1, 10000 nM	62	23.2	46.5
sgRNA knockout: sgHSF1, 10 nM	76.6	96.2	–
sgRNA knockout: sgHSF1, 100 nM	92.6	94.1	–
sgRNA knockout: sgHSF1, 1000 nM	102	80.9	–
sgRNA knockout: sgHSF1, 10000 nM	52.1	24.7	–
sgRNA knockout: sgHSF2, 10 nM	94.6	92.2	88.8
sgRNA knockout: sgHSF2, 100 nM	88	74.5	108
sgRNA knockout: sgHSF2, 1000 nM	87.4	74.5	92.4
sgRNA knockout: sgHSF2, 10000 nM	45.4	31.7	33.9
sgRNA knockout: sgKEAP1, 10 nM	111.5	68	–
sgRNA knockout: sgKEAP1, 100 nM	81.3	84.3	–
sgRNA knockout: sgKEAP1, 1000 nM	65.1	71.1	–
sgRNA knockout: sgKEAP1, 10000 nM	59.9	30.5	–
sgRNA knockout: sgNFE2L2, 10 nM	84.5	80.6	104
sgRNA knockout: sgNFE2L2, 100 nM	79.1	85.5	95.4
sgRNA knockout: sgNFE2L2, 1000 nM	96.6	86	93.1
sgRNA knockout: sgNFE2L2, 10000 nM	66.5	31.4	43.6
sgRNA knockout: sgSLC35F2, 10 nM	96.6	84	46.1
sgRNA knockout: sgSLC35F2, 100 nM	106	109	117
sgRNA knockout: sgSLC35F2, 1000 nM	83	61	66.3
sgRNA knockout: sgSLC35F2, 10000 nM	48.5	29.5	49.9
sgRNA knockout: sgXBP1, 10 nM	70.9	92.7	96.5
sgRNA knockout: sgXBP1, 100 nM	97.7	94.6	96.9
sgRNA knockout: sgXBP1, 1000 nM	83.2	92.1	88.3
sgRNA knockout: sgXBP1, 10000 nM	56.3	28.9	36.3

O=c1cc(-c2cccc3c2Sc2ccccc2S3)oc(N2CCOCC2)c1
relative cell number
Settings	MDA-MB-231	SKBR3	ZR-75-1
sgRNA knockout: sgATF3, 10 nM	130	106	90.6
sgRNA knockout: sgATF3, 100 nM	92.2	117	94.9
sgRNA knockout: sgATF3, 1000 nM	85.5	112	111
sgRNA knockout: sgATF3, 10000 nM	78.9	49.6	82.5
sgRNA knockout: sgATF4, 10 nM	92.6	95.9	82.2
sgRNA knockout: sgATF4, 100 nM	106	94.2	115
sgRNA knockout: sgATF4, 1000 nM	89.7	90.7	129
sgRNA knockout: sgATF4, 10000 nM	79	50	55.09
sgRNA knockout: sgATF6, 10 nM	93.4	81	125
sgRNA knockout: sgATF6, 100 nM	89.8	93.8	100
sgRNA knockout: sgATF6, 1000 nM	93	86.4	98
sgRNA knockout: sgATF6, 10000 nM	61.2	60.8	74
sgRNA knockout: sgATG7, 10 nM	110	90.8	76.3
sgRNA knockout: sgATG7, 100 nM	87.28	101	93.8
sgRNA knockout: sgATG7, 1000 nM	90.9	108	107
sgRNA knockout: sgATG7, 10000 nM	76.9	68.73	75.1
sgRNA knockout: sgERN1, 10 nM	114	119	71.7
sgRNA knockout: sgERN1, 100 nM	99.6	104	105
sgRNA knockout: sgERN1, 1000 nM	97	96.3	98.7
sgRNA knockout: sgERN1, 10000 nM	83.2	44.5	68.1
sgRNA knockout: sgHSF1, 10 nM	103	91.2	–
sgRNA knockout: sgHSF1, 100 nM	93.7	88.3	–
sgRNA knockout: sgHSF1, 1000 nM	89.465	99.1	–
sgRNA knockout: sgHSF1, 10000 nM	61.7	50.8	–
sgRNA knockout: sgHSF2, 10 nM	108	95.7	92.1
sgRNA knockout: sgHSF2, 100 nM	91.1	89.5	91.3
sgRNA knockout: sgHSF2, 1000 nM	99.7	93.1	98.1
sgRNA knockout: sgHSF2, 10000 nM	79.6	50.2	76.565
sgRNA knockout: sgKEAP1, 10 nM	99.6	109	–
sgRNA knockout: sgKEAP1, 100 nM	91.4	87.7	–
sgRNA knockout: sgKEAP1, 1000 nM	107	80.1	–
sgRNA knockout: sgKEAP1, 10000 nM	65.9	51.3	–
sgRNA knockout: sgNFE2L2, 10 nM	83.9	104	107
sgRNA knockout: sgNFE2L2, 100 nM	89.3	80.8	79.6
sgRNA knockout: sgNFE2L2, 1000 nM	99	90.23	94.34
sgRNA knockout: sgNFE2L2, 10000 nM	80	56.9	77.8
sgRNA knockout: sgSLC35F2, 10 nM	85.8	85.4	72.2
sgRNA knockout: sgSLC35F2, 100 nM	107	73.8	72.1
sgRNA knockout: sgSLC35F2, 1000 nM	73.6	98	102
sgRNA knockout: sgSLC35F2, 10000 nM	78.4	62.6	78.2
sgRNA knockout: sgXBP1, 10 nM	104	118	95.2
sgRNA knockout: sgXBP1, 100 nM	87.41	85.9	72.29
sgRNA knockout: sgXBP1, 1000 nM	100	79.3	106
sgRNA knockout: sgXBP1, 10000 nM	72.7	58.1	66.2
